doi:10.1101/2022.05.12.491658

The chains behind the UniProt entries cited, without tags or fusion partners. Where a name states a change or a piece, a line headed by the entry shows the natural chain unless it says otherwise.
UniProt O22607: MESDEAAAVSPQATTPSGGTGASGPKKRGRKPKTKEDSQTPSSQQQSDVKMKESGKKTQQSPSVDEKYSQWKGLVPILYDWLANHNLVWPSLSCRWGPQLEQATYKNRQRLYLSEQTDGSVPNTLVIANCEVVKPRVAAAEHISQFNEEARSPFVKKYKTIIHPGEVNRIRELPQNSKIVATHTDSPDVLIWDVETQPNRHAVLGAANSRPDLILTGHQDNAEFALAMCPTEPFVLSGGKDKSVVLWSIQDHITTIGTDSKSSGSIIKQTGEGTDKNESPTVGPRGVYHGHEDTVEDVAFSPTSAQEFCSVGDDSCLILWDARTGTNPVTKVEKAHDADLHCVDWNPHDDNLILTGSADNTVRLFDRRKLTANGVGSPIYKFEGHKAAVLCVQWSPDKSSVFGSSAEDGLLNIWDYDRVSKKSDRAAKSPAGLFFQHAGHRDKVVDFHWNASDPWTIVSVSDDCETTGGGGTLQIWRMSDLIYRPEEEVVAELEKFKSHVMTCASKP

Experiments:
[1] = target: T1, FLOWERING LOCUS D (FLD) (Arabidopsis thaliana) (UniProt Q9CAE3); assay: two-hybrid
T1 sequence: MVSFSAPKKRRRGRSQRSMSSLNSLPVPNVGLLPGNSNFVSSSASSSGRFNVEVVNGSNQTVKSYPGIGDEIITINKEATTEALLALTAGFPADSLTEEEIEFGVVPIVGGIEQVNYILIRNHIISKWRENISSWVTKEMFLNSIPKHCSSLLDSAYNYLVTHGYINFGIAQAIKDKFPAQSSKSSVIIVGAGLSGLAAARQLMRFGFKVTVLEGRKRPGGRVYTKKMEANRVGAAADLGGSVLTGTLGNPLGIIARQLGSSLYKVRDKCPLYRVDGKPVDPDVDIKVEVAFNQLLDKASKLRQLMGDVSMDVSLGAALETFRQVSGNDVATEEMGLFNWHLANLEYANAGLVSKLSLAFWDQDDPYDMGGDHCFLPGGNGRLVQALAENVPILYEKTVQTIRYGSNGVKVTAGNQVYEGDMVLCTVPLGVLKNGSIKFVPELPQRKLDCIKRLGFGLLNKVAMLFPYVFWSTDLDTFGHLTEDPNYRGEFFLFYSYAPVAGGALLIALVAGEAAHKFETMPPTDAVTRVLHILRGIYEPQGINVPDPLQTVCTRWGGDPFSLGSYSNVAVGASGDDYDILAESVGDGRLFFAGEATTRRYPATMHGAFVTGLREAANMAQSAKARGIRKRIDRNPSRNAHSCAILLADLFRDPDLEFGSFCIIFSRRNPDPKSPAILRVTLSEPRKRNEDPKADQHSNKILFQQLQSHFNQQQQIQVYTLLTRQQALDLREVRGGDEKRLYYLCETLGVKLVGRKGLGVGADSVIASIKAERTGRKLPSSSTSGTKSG

[2] = target: FLOWERING LOCUS VE (FVE) (Arabidopsis thaliana) (UniProt O22607); assay: two-hybrid

For “FLOWERING LOCUS VE (FVE) (from UniProt O22607)”, which binding [1] is on record?
The binding was “binds”.

B1: LSD1-like 1 (LDL1) (protein, UniProt Q8VXV7 1-844)
chain: MSTETKETRPETKPEDLGTHTTVDVPGEEPLGELIADDVNEVVSDASATETDFSLSPSQSEQNIEEDGQNSLDDQSPLTELQPLPLPPPLPVEARISESLGEEESSDLVTEQQSQNPNAAEPGPRARKRRRRKRFFTEINANPAFSRNRRTSVGKEVDSEALIAMSVGFPVYSLTEEEIEANVVSIIGGKDQANYIVVRNHIIALWRSNVSNWLTRDHALESIRAEHKTLVDTAYNFLLEHGYINFGLAPVIKEAKLRSFDGVEPPNVVVVGAGLAGLVAARQLLSMGFRVLVLEGRDRPGGRVKTRKMKGGDGVEAMADVGGSVLTGINGNPLGVLARQLGLPLHKVRDICPLYLPNGELADASVDSKIEASFNKLLDRVCKLRQSMIEENKSVDVPLGEALETFRLVYGVAEDQQERMLLDWHLANLEYANATLLGNLSMAYWDQDDPYEMGGDHCFIPGGNEIFVHALAENLPIFYGSTVESIRYGSNGVLVYTGNKEFHCDMALCTVPLGVLKKGSIEFYPELPHKKKEAIQRLGFGLLNKVAMLFPCNFWGEEIDTFGRLTEDPSTRGEFFLFYSYSSVSGGPLLVALVAGDAAERFETLSPTDSVKRVLQILRGIYHPKGIVVPDPVQALCSRWGQDKFSYGSYSYVAVGSSGDDYDILAESVGDGRVFFAGEATNRQYPATMHGAFLSGMREAANILRVARRRASSSALNPNQICIDKEEEVDEEEDRCLDQLFETPDLTFGNFSVLFTPNSDEPESMSLLRVRIQMEKPESGLWLYGLVTRKQAIELGEMDGDELRNEYLREKLGLVPVERKSLSQEGESMISSLKAARLNRQIFD
B1 was tested. Which binding [2] did it give?
Its binding is “binds”.

These are yes or no findings as the source states them, for the method shown. Binding calls can cover weak binding; strength is not graded here.
